Results published in US20110201109A1.
Results are given in words; binding and its absence hold for the method and conditions named. In cells and extracts the contact can be indirect. Some results given as binding are weak or reduced against the parent protein; the word gives no strength. Tags and fused reporters may be left off the sequences shown.

T1: Myc-tagged HCF-1 (aa 1-429) (human) (UniProt P51610)
T1 sequence (looked up): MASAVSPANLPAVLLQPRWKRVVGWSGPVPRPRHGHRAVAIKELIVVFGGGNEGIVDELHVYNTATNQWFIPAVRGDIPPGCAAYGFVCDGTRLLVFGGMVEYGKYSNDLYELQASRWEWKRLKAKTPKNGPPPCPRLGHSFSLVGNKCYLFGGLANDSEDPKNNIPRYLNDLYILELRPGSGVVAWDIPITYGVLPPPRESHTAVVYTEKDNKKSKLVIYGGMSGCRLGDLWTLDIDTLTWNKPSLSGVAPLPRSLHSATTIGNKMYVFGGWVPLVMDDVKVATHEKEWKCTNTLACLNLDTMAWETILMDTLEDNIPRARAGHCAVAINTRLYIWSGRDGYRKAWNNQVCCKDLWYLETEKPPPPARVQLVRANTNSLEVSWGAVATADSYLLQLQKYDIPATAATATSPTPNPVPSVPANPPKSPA

T2: Myc-tagged THAP7 (human) (UniProt Q9BT49)
T2 sequence (looked up): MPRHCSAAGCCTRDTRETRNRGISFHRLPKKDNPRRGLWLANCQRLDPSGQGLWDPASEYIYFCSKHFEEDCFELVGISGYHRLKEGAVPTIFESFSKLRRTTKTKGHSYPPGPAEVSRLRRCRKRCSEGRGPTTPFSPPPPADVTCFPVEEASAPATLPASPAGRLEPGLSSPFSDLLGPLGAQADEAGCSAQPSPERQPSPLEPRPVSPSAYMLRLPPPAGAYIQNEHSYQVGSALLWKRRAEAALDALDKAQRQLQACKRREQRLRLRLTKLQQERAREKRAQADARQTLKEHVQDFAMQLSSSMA

T3: Myc-tagged THAP7 (human), Q9BT49
T3 chain: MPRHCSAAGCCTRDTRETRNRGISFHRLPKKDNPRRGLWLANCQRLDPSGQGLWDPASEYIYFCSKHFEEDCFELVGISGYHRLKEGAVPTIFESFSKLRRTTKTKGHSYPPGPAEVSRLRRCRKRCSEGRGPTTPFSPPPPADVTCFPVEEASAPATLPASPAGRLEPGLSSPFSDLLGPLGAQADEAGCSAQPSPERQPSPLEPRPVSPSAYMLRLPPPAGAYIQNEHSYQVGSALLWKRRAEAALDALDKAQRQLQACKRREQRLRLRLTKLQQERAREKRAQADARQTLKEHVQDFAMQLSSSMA


What was measured:
Test in all cases: GST pull-down from co-transfected 293 cells, anti-Myc Western blot
[1] = target: T1, Myc-tagged HCF-1 (aa 1-429) (human)
Myc-tagged Ronin (human) = Myc-tagged Ronin (human) (UniProt Q96EK4)
Myc-tagged THAP7 (human) = target: T2, Myc-tagged THAP7 (human)
[2] = target: T3, Myc-tagged THAP7 (human), Q9BT49; conditions: remark: other sources report otherwise

| Molecule | binding [1] | binding (Myc-tagged Ronin (human)) | binding (Myc-tagged THAP7 (human)) | binding [2] |
| --- | --- | --- | --- | --- |
| GST-tagged Ronin (full-length) (from UniProt Q96EK4 1-314) | binds | binds |  |  |
| GST-tagged Ronin-N (aa 1-103) (protein, human, UniProt Q96EK4 1-103, looked up, not shown: a dimerising Fc or GST) MPGFTCCVPGCYNNSHRDKALHFYTFPKDAELRRLWLKNVSRAGVSGCFSTFQPTTGHRLCSVHFQGGRKTYTVRVPTIFPLRGVNERKVARRPAGAAAARRR |  |  | binds |  |
| GST-tagged Ronin-C (aa 132-315) (protein, human, UniProt Q96EK4 132-314, looked up, not shown: a dimerising Fc or GST) QSSPSASTAQTAQLQPNLVSASAAVLLTLQATVDSSQAPGSVQPAPITPTGEDVKPIDLTVQVEFAAAEGAAAAAAASELQAATAGLEAAECPMGPQLVVVGEEGFPDTGSDHSYSLSSGTTEEELLRKLNEQRDILALMEVKMKEMKGSIRHLRLTEAKLREELREKDRLLAMAVIRKKHGM | binds | binds |  |  |
| GST-tagged Ronin (full-length), Q96EK4 1-314 (protein, human, UniProt Q96EK4 1-314, looked up, not shown: a dimerising Fc or GST) MPGFTCCVPGCYNNSHRDKALHFYTFPKDAELRRLWLKNVSRAGVSGCFSTFQPTTGHRLCSVHFQGGRKTYTVRVPTIFPLRGVNERKVARRPAGAAAARRRQQQQQQQQQQQQQQQQQQQQQQQQQQQQQSSPSASTAQTAQLQPNLVSASAAVLLTLQATVDSSQAPGSVQPAPITPTGEDVKPIDLTVQVEFAAAEGAAAAAAASELQAATAGLEAAECPMGPQLVVVGEEGFPDTGSDHSYSLSSGTTEEELLRKLNEQRDILALMEVKMKEMKGSIRHLRLTEAKLREELREKDRLLAMAVIRKKHGM |  |  |  | binds |
